Reference: patent US11584744B2 (UNIVERSITY OF WASHINGTON, priority 2017, dated 2023)

Tested on: S. aureus
Assay: Serum shift assays (MIC with and without 50% human serum)
Format: cell-based, Staphylococcus aureus
Settings: 50% human serum vs no serum
Experimental: Serum shift assays: To assess the role of protein binding on compound susceptibility, MIC determinations were performed in triplicate in the presence and absence of 50% human serum. Serial threefold dilutions of 2× compound were generated in MHB and aliquoted onto 96 well plates with a DMSO limit of 0.5%. Bacteria were adjusted to 1*10^8 CFUs/mL in MHB, then further diluted 1:100 in MHB and 100% heat deactivated filter sterilized pooled human serum. Fifty microliters were added to each well of the corresponding plates, and the plates were incubated at 37° C. for ˜20 h. The lowest concentration causing ≥90% growth inhibition was recorded as the MIC.

Row | SMILES | Avg Fold-shift of MIC
1 | CO[C@@H]1[C@@H](OC(N)=O)[C@@H](O)[C@H](Oc2ccc3c(O)c(NC(=O)c4ccc(O)c(CC=C(C)C)c4)c(=O)oc3c2C)OC1(C)C [NOV, novobiocin] | 158.6
2 | CN[C@H](CC(C)C)C(=O)N[C@H]1C(=O)N[C@@H](CC(N)=O)C(=O)N[C@H]2C(=O)N[C@H]3C(=O)N[C@H](C(=O)N[C@H](C(=O)O)c4cc(O)cc(O)c4-c4cc3ccc4O)[C@H](O)c3ccc(c(Cl)c3)Oc3cc2cc(c3O[C@@H]2O[C@H](CO)[C@@H](O)[C@H](O)[C@H]2O[C@H]2C[C@](C)(N)[C@H](O)[C@H](C)O2)Oc2ccc(cc2Cl)[C@H]1O [VAN, vancomycin] | 1.7
